Measured values published in PMC12431657, “Discovery and mechanistic insights of dibenzoylmethane as a broad spectrum inhibitor of coronavirus” (PLOS Pathogens, 2025).
Where a name gives a salt, the structure may show the parent alone. Read-outs that look alike come from different tables or passages of the source. Among all 3,300 compounds or so, about 95 (3%) showed an effect of 50% or more. The list shows a part of the results.

Test system: HCoV-229E
Parameters: species or system Huh-7; HTS, protection from HCoV-229E induced cell death, luminescent cell viability (CellCounting-Lite 2.0), inhibition rate
Conditions: 24 h post infection, 1 h compound pre-incubation, 10 µM, inhibitor

| SMILES | 229E Inhibition rate (229E Inhibition rate, 24 h) | 229E Inhibition rate |
| --- | --- | --- |
| C[C@H](CCC(=O)NCC(=O)O)[C@H]1CC[C@H]2[C@@H]3CC[C@@H]4C[C@H](O)CC[C@]4(C)[C@H]3C[C@H](O)[C@]12C [Glycodeoxycholic Acid] | 10.1% |  |
| CC(C)C1=CC2=CC[C@@H]3[C@](C)(CCC[C@@]3(C)C(=O)O)[C@H]2CC1 [Abietic acid] |  | 49.1% |
| C[C@@H]1O[C@@H](O[C@H]2[C@H](OC(=O)[C@]34CCC(C)(C)C[C@H]3C3=CC[C@@H]5[C@@]6(C)C[C@H](O)[C@@H]7O[C@@H]8O[C@H](CO)[C@@H](O)[C@H](O)[C@H]8O[C@@H]8OC[C@H](O)[C@H](O)[C@H]8OC(=O)C[C@@](C)(O)CC(=O)OC[C@@]7(C)[C@@H]6CC[C@@]5(C)[C@]3(C)CC4)OC[C@H](O)[C@@H]2O)[C@H](O)[C@H](O[C@@H]2OC[C@@H](O)[C@H](O)[C@H]2O)[C@H]1O [Tubeimoside I] |  | 25.1% |
| CC(=O)O[C@]1(C)CC[C@@]23C[C@@H]1C(C)(C)[C@@H]2CC[C@H]3C [Cedryl acetate] |  | 0% |
| C[C@@H]1CC[C@@]2(OC1)O[C@H]1C[C@H]3[C@@H]4CC=C5C[C@@H](O)C[C@@H](O[C@@H]6O[C@H](C)[C@H](O)[C@H](O[C@@H]7OC[C@@H](O)[C@H](O)[C@H]7O)[C@H]6O[C@@H]6O[C@H](CO)[C@@H](O)[C@H](O)[C@H]6O)[C@]5(C)[C@H]4CC[C@]3(C)[C@H]1[C@@H]2C [Saponin C, from Liriope muscari] |  | 0% |
| COc1cc(O)c(CC=C(C)C)c(O)c1C(=O)/C=C/c1ccc(O)cc1 [Xanthohumol] |  | 6.9% |
| O=c1c(-c2ccc(O)cc2)coc2c([C@@H]3O[C@H](CO)[C@@H](O)[C@H](O)[C@H]3O)c(O)ccc12 [Puerarin] |  | 18.7% |
| C/C=C(/C)C(=O)O[C@@H]1c2c(ccc3ccc(=O)oc23)OC(C)(C)[C@@H]1OC(C)=O [Pteryxin] |  | 4.8% |
| O=C1O[C@H]([C@@H](O)CO)C(O)=C1O [L-Ascorbic acid] | 17.7% |  |
| CC(C)=CCC/C(C)=C/CC/C(C)=C/CC/C(C)=C/CC/C(C)=C/CC/C(C)=C/CC/C(C)=C/CC/C(C)=C/CC/C(C)=C/CO [Solanesol] |  | 12.2% |
| COC(=O)c1ccccc1C(=O)O [Monomethyl phthalate] |  | 7.7% |
| COc1ccc([C@H]2OC[C@H]3[C@@H]2CO[C@H]3c2cc(OC)c(OC)c(OC)c2)cc1OC [Epimagnolin A] |  | 17.9% |
| c1cc2c(cc1O[C@H]1OC[C@H]3[C@@H]1CO[C@@H]3c1ccc3c(c1)OCO3)OCO2 [Sesamolin] |  | 62.2% |
| C[C@@H]1O[C@@H](O[C@H]2[C@H](O[C@H]3CC[C@@]4(C)[C@@H](CC[C@]5(C)[C@@H]4CC=C4[C@@H]6CC(C)(C)CC[C@]6(C(=O)O[C@@H]6O[C@H](CO[C@@H]7O[C@H](CO)[C@@H](O[C@@H]8O[C@@H](C)[C@H](O)[C@@H](O)[C@H]8O)[C@H](O)[C@H]7O)[C@@H](O)[C@H](O)[C@H]6O)CC[C@]45C)[C@]3(C)CO)OC[C@H](O)[C@@H]2O)[C@H](O)[C@H](O)[C@H]1O [Hederacoside C] |  | 21% |
| C[C@@H]1CC[C@]2(C(=O)O)CC[C@]3(C)C(=CC[C@@H]4[C@@]5(C)CC[C@H](O)[C@](C)(C(=O)O)[C@@H]5CC[C@]43C)[C@@H]2[C@]1(C)O [Ilexgenin A] |  | 10.2% |
| C/C=C1/CN2[C@@H]3C[C@@]45c6ccccc6N[C@]4(O3)[C@@H]2C[C@@H]1[C@H]5C(=O)OC [Picrinine] |  | 51.7% |
| C[C@]12CC[C@@H]3c4ccc(O)cc4CC[C@H]3[C@@H]1CC[C@H]2O [Alpha-Estradiol] |  | 18.2% |
| CCCCCCCCCC(=O)NCc1ccc(O)c(OC)c1 [N-Vanillyldecanamide] |  | 0% |
| CCCCCCCCCCCCCCCCCCCCCCCCCCCCC [Nonacosane] |  | 31.8% |
| Cc1cc(O)c2c(=O)c3c(O)cc(O)c4c5c(O)cc(O)c6c(=O)c7c(O)cc(C)c8c1c2c(c34)c(c78)c65 [Hypericin] |  | 19.1% |
| CC(=O)O[C@H]1CC/C(C)=C/CC/C(C)=C/C[C@]2(C(C)C)CC[C@@]1(C)O2 [Incensole Acetate] |  | 12.5% |
| CC(C)=CCNc1ncnc2nc[nH]c12 [6-(γ,γ-Dimethylallylamino)purine] |  | 12.7% |
| C[C@H]1CC[C@]2(NC1)O[C@H]1C[C@H]3[C@@H]4CC[C@H]5C[C@@H](O)CC[C@]5(C)[C@H]4CC[C@]3(C)[C@H]1[C@@H]2C [Tomatidine (hydrochloride)] | 28.3% |  |
| CC(C)CC1NC(=O)C(Cc2ccc(O)cc2)NC1=O (centres unmarked) [Cyclo(Tyr-Leu)] |  | 23% |
| CCCCCC(=O)O[C@H](CC(=O)[O-])C[N+](C)(C)C [L-Hexanoylcarnitine] |  | 26.2% |

| SMILES | 229E Inhibition rate (229E Inhibition rate, 24 h) | 229E Inhibition rate |
| --- | --- | --- |
| COc1cc2c(cc1OC)-c1cc3ccc4c(c3c(=O)n1CC2)OCO4 [8-Oxoepiberberine] |  | 17.9% |
| CC(=O)O[C@H]1Cc2c(cc3oc(C)cc(=O)c3c2O)OC1(C)C [3'-O-Acetylhamaudol] |  | 8.4% |
| CC1=C(CC[C@@H](C)CO[C@@H]2O[C@H](CO)[C@@H](O)[C@H](O)[C@H]2O)O[C@H]2C[C@H]3[C@@H]4CC=C5C[C@@H](O[C@@H]6O[C@H](CO)[C@@H](O[C@@H]7O[C@@H](C)[C@H](O)[C@@H](O)[C@H]7O)[C@H](O)[C@H]6O[C@@H]6O[C@@H](C)[C@H](O)[C@@H](O)[C@H]6O)CC[C@]5(C)[C@H]4CC[C@]3(C)[C@@H]12 [Pseudoprotodioscin] |  | 11.2% |
| CC(C)=C[C@H]1C[C@](C)(O)[C@@H]2[C@H]3CC[C@@H]4[C@@]5(C)CC[C@H](O[C@@H]6OC[C@H](O)[C@H](O[C@@H]7O[C@H](CO[C@@H]8O[C@H](CO)[C@@H](O)[C@H](O)[C@H]8O)[C@@H](O)[C@H](O)[C@H]7O[C@@H]7OC[C@@H](O)[C@H](O)[C@H]7O)[C@H]6O[C@@H]6O[C@@H](C)[C@H](O)[C@@H](O)[C@H]6O)C(C)(C)[C@@H]5CC[C@@]4(C)[C@@]34CO[C@@]2(C4)O1 [Jujuboside A] |  | 16.6% |
| COc1cc2oc(=O)ccc2c(OC)c1CC=C(C)C [Toddaculin] |  | 16.5% |
| COc1cc(C)c2c(=O)c(-c3ccccc3)coc2c1 [5-Methyl-7-methoxyisoflavone] |  | 16% |
| COc1cc(O)cc(O)c1C(=O)/C=C/c1ccccc1 [Cardamonin] |  | 35.3% |
| CCCCCCCCCCCCCCCCCCO [1-Hydroxyoctadecane] |  | 13.3% |
| CC(=O)O[C@H]1C(=O)c2c(O)cc(O)cc2O[C@@H]1c1ccccc1 [Pinobanksin 3-acetate] |  | 0% |
| COc1cc2oc(-c3ccc(O)cc3)cc(=O)c2c(O)c1OC [Cirsimaritin] |  | 24% |
| COc1ccc(CCC(=O)c2ccc(O)cc2)c(OC)c1 [Loureirin A] |  | 6.1% |
| COc1ccc2c(OC)c3ccoc3nc2c1OC [Skimmianine] |  | 40.9% |
| C1CCN2C[C@@H]3C[C@@H](CN4CCCC[C@@H]34)[C@H]2C1 [(-)-Sparteine] |  | 13.7% |
| O=C(O)C(=O)O [Oxalic Acid] | 12.5% |  |
| CC(C(=O)c1ccc(O)cc1O)c1ccc(O)cc1 (centres unmarked) [O-Desmethylangolensin] |  | 0% |
| C[C@H](C[C@H](O)[C@@H](O)C(C)(C)O)C1=C2C[C@H](O)[C@H]3[C@@]4(C)CCC(=O)C(C)(C)[C@@H]4CC[C@]3(C)[C@@]2(C)CC1 [Alisol A] |  | 7.4% |
| O=c1cc(-c2ccc(O)c(-c3c(O)cc(O)c4c(=O)cc(-c5ccc(O)cc5)oc34)c2)oc2cc(O)cc(O)c12 [Amentoflavone] |  | 8.5% |
| C=C(C)[C@@H]1CC[C@]2(C(=O)O)CC[C@]3(C)[C@H](CC[C@@H]4[C@@]5(C)CC[C@H](O)[C@@](C)(CO)[C@@H]5CC[C@]43C)[C@@H]12 [23-Hydroxybetulinic acid] |  | 6.3% |
| C=C1CC23C[C@H]4[C@@H]5[C@@]6(C)C[C@H](OC(C)=O)C[C@]57C(N4C6)[C@@]2(O)[C@H](OC(C)=O)[C@H]1[C@@H](O)[C@H]37 [Guanfu base A] |  | 13% |
| COc1ccc(/C=C/C(=O)c2c(O)cc(OC)cc2OC)cc1 [Flavokawain A] |  | 0% |
| CC1(C)C[C@H]2C3=CC[C@@H]4[C@@]5(C)CC[C@H](O)[C@@](C)(CO)[C@@H]5CC[C@@]4(C)[C@]3(C)C[C@H](O)[C@@]2(CO)[C@@H](O)[C@@H]1O [Gymnemagenin] |  | 6.8% |
| C[C@@H]1O[C@@H](O[C@H]2C[C@@H](O)[C@]3(CO)[C@H]4[C@H](O)C[C@]5(C)[C@@H](C6=CC(=O)OC6)CC[C@]5(O)[C@@H]4CC[C@]3(O)C2)[C@H](O)[C@H](O)[C@H]1O [Ouabain (Octahydrate)] |  | 13.6% |
| Nc1ncnc2c1ncn2[C@@H]1O[C@H](COP(=O)(O)OP(=O)(O)OP(=O)(O)O)[C@@H](O)[C@H]1O [ATP (disodium salt hydrate)] | 3.4% |  |
| CC(C)=CCC[C@](C)(O)[C@H]1CC[C@]2(C)[C@@H]1[C@H](O)C[C@@H]1[C@@]3(C)CC[C@H](O)C(C)(C)[C@@H]3CC[C@]12C [(20S)-Protopanaxadiol] |  | 22.7% |
| CC(C)=CCC/C(C)=C/Cc1c(O)ccc(C(=O)/C=C/c2ccc(O)cc2)c1O [Xanthoangelol] |  | 13.6% |

Single records, as listed above:
C=C(C)[C@@H]1CC[C@]2(C(=O)O)CC[C@]3(C)[C@H](CC[C@@H]4[C@@]5(C)CC[C@H](O)[C@@](C)(CO)[C@@H]5CC[C@]43C)[C@@H]12 [23-Hydroxybetulinic acid] reads 229E Inhibition rate: 6.3%
C[C@@H]1O[C@@H](O[C@H]2C[C@@H](O)[C@]3(CO)[C@H]4[C@H](O)C[C@]5(C)[C@@H](C6=CC(=O)OC6)CC[C@]5(O)[C@@H]4CC[C@]3(O)C2)[C@H](O)[C@H](O)[C@H]1O [Ouabain (Octahydrate)] reads 229E Inhibition rate: 13.6%
O=c1cc(-c2ccc(O)c(-c3c(O)cc(O)c4c(=O)cc(-c5ccc(O)cc5)oc34)c2)oc2cc(O)cc(O)c12 [Amentoflavone] reads 229E Inhibition rate: 8.5%
COc1ccc(/C=C/C(=O)c2c(O)cc(OC)cc2OC)cc1 [Flavokawain A] reads 229E Inhibition rate: 0%
